Measured values taken from the supplement of paper PMC10849652.
The list shows a part of the results.

The chains behind the UniProt entries cited, without tags or fusion partners. Where a name states a change or a piece, a line headed by the entry shows the natural chain unless it says otherwise.
UniProt O60942: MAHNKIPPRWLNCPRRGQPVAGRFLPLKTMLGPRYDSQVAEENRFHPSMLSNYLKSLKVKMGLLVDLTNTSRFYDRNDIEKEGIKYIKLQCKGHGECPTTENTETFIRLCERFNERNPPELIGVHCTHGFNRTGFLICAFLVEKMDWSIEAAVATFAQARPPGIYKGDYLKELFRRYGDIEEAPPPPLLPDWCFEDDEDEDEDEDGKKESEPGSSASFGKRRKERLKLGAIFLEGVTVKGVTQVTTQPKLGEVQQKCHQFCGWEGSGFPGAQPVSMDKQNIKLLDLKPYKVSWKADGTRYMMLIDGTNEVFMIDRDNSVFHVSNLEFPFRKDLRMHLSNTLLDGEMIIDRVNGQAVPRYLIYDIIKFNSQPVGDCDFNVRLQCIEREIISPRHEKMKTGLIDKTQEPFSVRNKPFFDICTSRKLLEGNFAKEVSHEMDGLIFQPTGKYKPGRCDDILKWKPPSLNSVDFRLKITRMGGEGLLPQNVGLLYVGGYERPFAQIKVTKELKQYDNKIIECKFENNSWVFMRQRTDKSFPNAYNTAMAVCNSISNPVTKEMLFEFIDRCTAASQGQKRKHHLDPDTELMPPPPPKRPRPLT
UniProt P13489: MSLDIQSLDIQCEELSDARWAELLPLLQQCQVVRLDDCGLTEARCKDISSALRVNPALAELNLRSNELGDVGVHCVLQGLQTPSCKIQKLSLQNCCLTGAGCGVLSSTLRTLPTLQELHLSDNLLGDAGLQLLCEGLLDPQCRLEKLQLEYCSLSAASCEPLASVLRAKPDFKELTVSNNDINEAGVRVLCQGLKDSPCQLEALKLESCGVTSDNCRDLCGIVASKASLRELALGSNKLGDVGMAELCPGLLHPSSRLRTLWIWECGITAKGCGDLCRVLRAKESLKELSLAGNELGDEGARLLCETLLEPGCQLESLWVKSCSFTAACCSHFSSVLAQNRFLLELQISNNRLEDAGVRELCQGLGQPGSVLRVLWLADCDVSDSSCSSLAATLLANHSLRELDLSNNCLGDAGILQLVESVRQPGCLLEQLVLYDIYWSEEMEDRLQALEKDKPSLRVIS
UniProt P78345: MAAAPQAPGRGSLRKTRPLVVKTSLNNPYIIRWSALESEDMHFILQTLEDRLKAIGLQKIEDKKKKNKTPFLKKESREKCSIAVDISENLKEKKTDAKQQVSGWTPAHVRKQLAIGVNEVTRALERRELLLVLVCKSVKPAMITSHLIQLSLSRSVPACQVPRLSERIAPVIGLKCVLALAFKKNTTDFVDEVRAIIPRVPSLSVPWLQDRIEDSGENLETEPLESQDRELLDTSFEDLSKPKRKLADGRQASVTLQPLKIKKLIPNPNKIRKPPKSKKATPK
UniProt Q7L523, whole entry, looked up: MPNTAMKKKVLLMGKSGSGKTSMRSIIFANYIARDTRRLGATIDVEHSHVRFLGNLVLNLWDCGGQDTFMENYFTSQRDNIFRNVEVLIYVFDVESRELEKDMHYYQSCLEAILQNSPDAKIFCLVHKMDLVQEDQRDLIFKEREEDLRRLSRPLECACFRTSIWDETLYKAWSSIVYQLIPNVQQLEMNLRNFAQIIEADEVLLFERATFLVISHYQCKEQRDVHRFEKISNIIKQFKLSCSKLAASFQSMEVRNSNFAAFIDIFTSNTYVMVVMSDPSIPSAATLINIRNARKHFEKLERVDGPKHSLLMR
UniProt Q8IZ73: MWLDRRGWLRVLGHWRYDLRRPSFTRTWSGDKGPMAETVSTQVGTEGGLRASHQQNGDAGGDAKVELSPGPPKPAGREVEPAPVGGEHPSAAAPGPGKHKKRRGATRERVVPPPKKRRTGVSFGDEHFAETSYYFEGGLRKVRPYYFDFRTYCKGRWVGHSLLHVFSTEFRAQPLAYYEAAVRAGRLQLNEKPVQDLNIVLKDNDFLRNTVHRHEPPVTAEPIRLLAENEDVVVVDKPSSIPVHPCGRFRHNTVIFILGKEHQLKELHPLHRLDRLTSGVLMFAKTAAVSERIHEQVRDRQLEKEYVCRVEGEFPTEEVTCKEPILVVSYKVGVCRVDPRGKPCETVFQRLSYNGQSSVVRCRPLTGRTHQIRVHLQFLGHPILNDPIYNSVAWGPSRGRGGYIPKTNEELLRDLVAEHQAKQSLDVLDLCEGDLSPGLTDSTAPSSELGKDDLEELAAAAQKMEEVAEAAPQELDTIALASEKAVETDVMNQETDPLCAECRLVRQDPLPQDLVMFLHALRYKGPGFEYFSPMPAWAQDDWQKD
UniProt P23921: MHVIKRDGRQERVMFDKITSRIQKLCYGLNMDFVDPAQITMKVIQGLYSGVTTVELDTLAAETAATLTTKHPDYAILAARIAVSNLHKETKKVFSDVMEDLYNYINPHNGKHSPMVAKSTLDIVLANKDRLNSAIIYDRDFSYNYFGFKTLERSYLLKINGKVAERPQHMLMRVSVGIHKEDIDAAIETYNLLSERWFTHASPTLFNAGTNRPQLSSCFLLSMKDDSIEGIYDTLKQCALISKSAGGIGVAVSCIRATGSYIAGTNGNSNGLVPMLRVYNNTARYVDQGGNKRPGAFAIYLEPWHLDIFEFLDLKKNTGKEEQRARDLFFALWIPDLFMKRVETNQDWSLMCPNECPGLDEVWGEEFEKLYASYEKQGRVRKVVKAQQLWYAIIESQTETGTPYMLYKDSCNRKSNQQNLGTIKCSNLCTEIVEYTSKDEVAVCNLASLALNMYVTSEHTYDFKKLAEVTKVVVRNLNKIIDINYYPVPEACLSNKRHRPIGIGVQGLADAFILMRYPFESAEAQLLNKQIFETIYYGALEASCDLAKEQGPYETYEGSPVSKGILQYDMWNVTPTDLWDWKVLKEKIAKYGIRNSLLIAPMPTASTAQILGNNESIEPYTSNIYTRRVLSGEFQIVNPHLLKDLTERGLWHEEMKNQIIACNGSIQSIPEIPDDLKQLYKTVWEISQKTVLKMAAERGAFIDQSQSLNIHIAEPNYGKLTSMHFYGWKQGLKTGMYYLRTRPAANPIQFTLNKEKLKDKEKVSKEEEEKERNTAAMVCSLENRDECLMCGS
UniProt P05386, whole entry, looked up: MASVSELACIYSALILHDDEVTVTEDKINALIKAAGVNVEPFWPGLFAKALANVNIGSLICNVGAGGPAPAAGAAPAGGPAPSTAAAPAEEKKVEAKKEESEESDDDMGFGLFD
UniProt O75818: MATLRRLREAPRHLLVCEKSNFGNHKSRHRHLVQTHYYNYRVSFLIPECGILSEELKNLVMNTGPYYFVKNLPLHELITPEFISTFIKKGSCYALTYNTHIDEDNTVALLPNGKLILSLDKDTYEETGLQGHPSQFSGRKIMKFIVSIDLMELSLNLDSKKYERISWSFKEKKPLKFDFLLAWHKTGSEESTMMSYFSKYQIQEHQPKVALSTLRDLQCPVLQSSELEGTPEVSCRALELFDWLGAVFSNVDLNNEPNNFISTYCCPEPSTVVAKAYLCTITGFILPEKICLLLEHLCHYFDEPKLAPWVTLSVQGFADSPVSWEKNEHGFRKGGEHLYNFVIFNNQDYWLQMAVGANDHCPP
UniProt Q9H4P4: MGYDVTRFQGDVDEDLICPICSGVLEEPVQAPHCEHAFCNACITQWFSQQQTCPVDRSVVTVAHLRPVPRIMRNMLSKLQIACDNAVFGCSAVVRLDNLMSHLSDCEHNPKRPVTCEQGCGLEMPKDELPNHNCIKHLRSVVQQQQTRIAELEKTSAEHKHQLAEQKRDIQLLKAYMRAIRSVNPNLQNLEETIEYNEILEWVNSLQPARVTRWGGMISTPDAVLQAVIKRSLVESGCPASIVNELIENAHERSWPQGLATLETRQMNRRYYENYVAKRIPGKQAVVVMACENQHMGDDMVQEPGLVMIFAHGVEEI
UniProt Q96BH1: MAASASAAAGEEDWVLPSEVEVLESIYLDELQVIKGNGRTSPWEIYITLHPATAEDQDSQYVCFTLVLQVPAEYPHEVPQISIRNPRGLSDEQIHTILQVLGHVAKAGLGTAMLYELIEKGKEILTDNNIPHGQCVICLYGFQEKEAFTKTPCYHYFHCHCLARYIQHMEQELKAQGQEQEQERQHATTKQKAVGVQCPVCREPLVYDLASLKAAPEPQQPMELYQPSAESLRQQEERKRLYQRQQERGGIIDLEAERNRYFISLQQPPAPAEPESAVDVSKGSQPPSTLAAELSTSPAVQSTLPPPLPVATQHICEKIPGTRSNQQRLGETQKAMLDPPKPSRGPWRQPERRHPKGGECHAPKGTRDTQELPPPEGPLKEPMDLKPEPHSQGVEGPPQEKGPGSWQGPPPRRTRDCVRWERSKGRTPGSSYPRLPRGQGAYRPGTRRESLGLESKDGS
UniProt Q92901: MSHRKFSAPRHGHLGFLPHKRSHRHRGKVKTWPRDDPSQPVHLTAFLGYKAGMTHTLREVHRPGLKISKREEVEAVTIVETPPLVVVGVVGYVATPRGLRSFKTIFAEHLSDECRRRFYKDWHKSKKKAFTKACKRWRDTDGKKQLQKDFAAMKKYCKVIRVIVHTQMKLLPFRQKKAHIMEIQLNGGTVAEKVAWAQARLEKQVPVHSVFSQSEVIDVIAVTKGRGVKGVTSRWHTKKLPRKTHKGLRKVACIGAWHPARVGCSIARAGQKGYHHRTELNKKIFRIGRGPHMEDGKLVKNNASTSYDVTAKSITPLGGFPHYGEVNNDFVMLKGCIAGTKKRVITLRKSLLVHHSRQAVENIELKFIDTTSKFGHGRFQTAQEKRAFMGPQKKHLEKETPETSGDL
UniProt Q9BUL9: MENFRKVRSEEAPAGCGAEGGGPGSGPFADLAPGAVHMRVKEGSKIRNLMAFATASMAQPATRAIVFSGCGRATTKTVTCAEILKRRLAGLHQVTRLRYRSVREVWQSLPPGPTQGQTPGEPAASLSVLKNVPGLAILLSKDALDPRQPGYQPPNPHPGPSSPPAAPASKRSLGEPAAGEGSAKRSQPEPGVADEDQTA

Assays:
Assay in all cases: log2 fold change, soluble protein after heating vs DMSO (PISA); higher = thermal stabilisation; K562 cells, 10 uM, 30 min; active = over 0.2 and 3.5 SD of the protein, either way, in both replicates (recomputed)
[1] = compound: CC[C@@H]1C(=O)N(C)c2cnc(Nc3ccc(C(=O)NC4CCN(C)CC4)cc3OC)nc2N1C1CCCC1
Outline: (§1)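 K562 cells (2×10^6 cells/mL) were treated with 10 μM compound for 30 min, and aliquots were heated for 3 min over 48°C-58°C. Pooled aliquots were extracted in PBS with 0.5% NP-40 at 4°C, and the supernatant after 21,000xg for 90 min was measured by TMTpro 16plex LC-MS/MS with channel sums equalised. Reported thermal stability, relative to control samples and from duplicates, is a log2 fold change.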

volasertib = compound: CC[C@@H]1C(=O)N(C)c2cnc(Nc3ccc(C(=O)N[C@H]4CC[C@H](N5CCN(CC6CC6)CC5)CC4)cc3OC)nc2N1C(C)C [volasertib]
Outline: as §1

[2] = compound: CC[C@H](C)N1C=C(C2=C(C=C(C=C21)C3=CN=C(C=C3)N4CCNCC4)C(=O)NCC5=C(C=C(NC5=O)C)C)C
Outline: as §1

epoxomicin = compound: CC[C@H](C)[C@@H](C(=O)N[C@@H]([C@@H](C)O)C(=O)N[C@@H](CC(C)C)C(=O)[C@]1(CO1)C)NC(=O)[C@H]([C@@H](C)CC)N(C)C(=O)C [epoxomicin]
Outline: as §1

[3] = compound: CCn1c(C(=O)N(C2CC2)C2CC2)cc2c3c(ncn3C)c(Nc3cc(C)n(C)n3)nc21
Outline: as §1

[4] = compound: CCn1cc(-c2ccnc3[nH]c(-c4cccc(CN(C)C)c4)cc23)c(-c2ccc(NC(=O)N(C)C)cc2)n1
Outline: as §1

[5] = compound: CN(C)CC(=O)Nc1ccc2[nH]c(=O)c3ccccc3c2c1
Outline: as §1

rosiglitazone = compound: CN(CCOC1=CC=C(C=C1)C[C@H]2C(=O)NC(=O)S2)C3=CC=CC=N3 (racemic) [rosiglitazone]
Outline: as §1

[6] = compound: CN1C2=C(C3=C1C(=O)N(N=C3)CC4=CC(=CC=C4)N)SC(=C2)S(=O)C
Outline: as §1

[7] = compound: CN1CCC(CNc2ccc3ncc(-c4cccc(OC(F)(F)F)c4)n3n2)CC1
Outline: as §1

Measured: log2 fold change

RPL27 (UniProt P61353)
inactive: [1] 0.228 | volasertib 0.578 | [2] -0.002 | epoxomicin -0.622 | [3] 0.032 | [4] 0.286 | [5] -0.245 | rosiglitazone -0.256 | [6] 0.425 | [7] 0.438

RNGTT (UniProt O60942)
inactive: [1] -0.054 | volasertib -0.186 | [2] 0.019 | epoxomicin 0.212 | [3] -0.03 | [4] -0.03 | [5] 0.012 | rosiglitazone 0.01 | [6] 0.005 | [7] 0.009

RPL8 (UniProt P62917)
inactive: [1] 0.253 | volasertib 0.767 | [2] -0.035 | epoxomicin -0.68 | [3] 0.006 | [4] 0.437 | [5] -0.284 | rosiglitazone -0.332 | [6] 0.57 | [7] 0.506

RPL34 (UniProt P49207)
inactive: [1] 0.275 | volasertib 0.772 | [2] -0.014 | epoxomicin -0.813 | [3] 0.073 | [4] 0.327 | [5] -0.236 | rosiglitazone -0.374 | [6] 0.532 | [7] 0.486

RPS15A (UniProt P62244)
inactive: [1] 0.15 | volasertib 0.473 | [2] 0.033 | epoxomicin -0.308 | [3] 0.007 | [4] 0.242 | [5] -0.1 | rosiglitazone -0.144 | [6] 0.236 | [7] 0.184

Three entries picked at random from those above, as already listed:
RPS15A (UniProt P62244)
inactive: [1] 0.15 | volasertib 0.473 | [2] 0.033 | epoxomicin -0.308 | [3] 0.007 | [4] 0.242 | [5] -0.1 | rosiglitazone -0.144 | [6] 0.236 | [7] 0.184

RPL8 (UniProt P62917)
inactive: [1] 0.253 | volasertib 0.767 | [2] -0.035 | epoxomicin -0.68 | [3] 0.006 | [4] 0.437 | [5] -0.284 | rosiglitazone -0.332 | [6] 0.57 | [7] 0.506

RPL27 (UniProt P61353)
inactive: [1] 0.228 | volasertib 0.578 | [2] -0.002 | epoxomicin -0.622 | [3] 0.032 | [4] 0.286 | [5] -0.245 | rosiglitazone -0.256 | [6] 0.425 | [7] 0.438

Additional results.

RNH1 (UniProt P13489)
inactive: [1] -0.066 | volasertib -0.115 | [2] 0.016 | epoxomicin 0.032 | [3] -0.005 | [4] -0.034 | [5] 0.028 | rosiglitazone 0.041 | [6] -0.096 | [7] -0.079

RPL3 (UniProt P39023)
inactive: [1] 0.302 | volasertib 0.815 | [2] -0.006 | epoxomicin -0.745 | [3] 0.062 | [4] 0.273 | [5] -0.276 | rosiglitazone -0.349 | [6] 0.573 | [7] 0.414

RPS23 (UniProt P62266)
inactive: [1] 0.214 | volasertib 0.551 | [2] 0.009 | epoxomicin -0.356 | [3] 0.004 | [4] 0.217 | [5] -0.153 | rosiglitazone -0.163 | [6] 0.333 | [7] 0.267

RPP38 (UniProt P78345)
inactive: [1] 0.071 | volasertib 0.111 | [2] 0.008 | epoxomicin 0.017 | [3] -0.052 | [4] 0.035 | [5] -0.047 | rosiglitazone -0.009 | [6] 0.006 | [7] 0.058

RPL26L1 (UniProt Q9UNX3)
inactive: [1] 0.174 | volasertib 0.531 | [2] 0.04 | epoxomicin -0.329 | [3] -0.003 | [4] 0.201 | [5] -0.127 | rosiglitazone -0.135 | [6] 0.319 | [7] 0.298

RRAGA (UniProt Q7L523)
inactive: [1] -0.057 | volasertib 0.007 | [2] -0.029 | epoxomicin 0.021 | [3] 0.071 | [4] 0 | [5] 0.017 | rosiglitazone 0.009 | [6] -0.106 | [7] 0.036

RPL13 (UniProt P26373)
inactive: [1] 0.285 | volasertib 0.744 | [2] -0.053 | epoxomicin -0.635 | [3] 0.084 | [4] 0.461 | [5] -0.306 | rosiglitazone -0.239 | [6] 0.543 | [7] 0.394

RPUSD2 (UniProt Q8IZ73)
inactive: [1] 0.039 | volasertib 0.003 | [2] 0.01 | epoxomicin -0.007 | [3] -0.017 | [4] -0.037 | [5] -0.007 | rosiglitazone 0.007 | [6] -0.012 | [7] 0.007

RRM1 (UniProt P23921)
inactive: [1] 0.031 | volasertib 0.051 | [2] -0.029 | epoxomicin 0.036 | [3] -0.01 | [4] -0.114 | [5] -0.014 | rosiglitazone 0.016 | [6] -0.049 | [7] -0.045

RPL4 (UniProt P36578)
inactive: [1] 0.249 | volasertib 0.844 | [2] 0.001 | epoxomicin -0.726 | [3] 0.058 | [4] 0.3 | [5] -0.304 | rosiglitazone -0.32 | [6] 0.478 | [7] 0.408

RPLP1 (UniProt P05386)
inactive: [1] 0.302 | volasertib 0.652 | [2] 0.026 | epoxomicin -0.193 | [3] 0.018 | [4] 0.433 | [5] -0.134 | rosiglitazone -0.24 | [6] 0.422 | [7] 0.596

RPL6 (UniProt Q02878)
inactive: [1] 0.297 | volasertib 0.846 | [2] 0 | epoxomicin -0.476 | [3] 0.095 | [4] 0.318 | [5] -0.265 | rosiglitazone -0.336 | [6] 0.538 | [7] 0.436

RPL7 (UniProt P18124)
inactive: [1] 0.298 | volasertib 0.85 | [2] 0 | epoxomicin -0.726 | [3] 0.073 | [4] 0.389 | [5] -0.304 | rosiglitazone -0.343 | [6] 0.505 | [7] 0.443

RPP40 (UniProt O75818)
inactive: [1] 0.124 | volasertib 0.152 | [2] -0.006 | epoxomicin -0.044 | [3] 0.042 | [4] 0.062 | [5] -0.023 | rosiglitazone -0.003 | [6] 0.063 | [7] 0.116

RNF41 (UniProt Q9H4P4)
inactive: [1] 0.044

RPS17 (UniProt P08708)
inactive: [1] 0.101 | volasertib 0.263 | [2] 0.028 | epoxomicin -0.159 | [3] 0.02 | [4] 0.14 | [5] -0.048 | rosiglitazone -0.041 | [6] 0.149 | [7] 0.082

RNF25 (UniProt Q96BH1)
inactive: [1] -0.029 | volasertib -0.061 | [2] 0.02 | epoxomicin 0.028 | [3] -0.014 | [4] -0.161 | [5] 0.031 | rosiglitazone -0.009 | [6] -0.092 | [7] 0.009

RPL28 (UniProt P46779)
inactive: [1] 0.287 | volasertib 0.718 | [2] 0.009 | epoxomicin -0.776 | [3] 0.055 | [4] 0.286 | [5] -0.242 | rosiglitazone -0.278 | [6] 0.529 | [7] 0.386

RPS6 (UniProt P62753)
inactive: [1] 0.153 | volasertib 0.492 | [2] 0.034 | epoxomicin -0.345 | [3] 0.018 | [4] 0.243 | [5] -0.131 | rosiglitazone -0.152 | [6] 0.233 | [7] 0.245

RPL23 (UniProt P62829)
inactive: [1] 0.176 | volasertib 0.379 | [2] 0.041 | epoxomicin -0.207 | [3] -0.006 | [4] 0.101 | [5] -0.078 | rosiglitazone -0.091 | [6] 0.227 | [7] 0.143

RPL7A (UniProt P62424)
inactive: [1] 0.255 | volasertib 0.799 | [2] -0.022 | epoxomicin -0.762 | [3] 0.089 | [4] 0.309 | [5] -0.255 | rosiglitazone -0.315 | [6] 0.483 | [7] 0.496

RPSA (UniProt P08865)
inactive: [1] 0.109 | volasertib 0.243 | [2] 0.013 | epoxomicin -0.038 | [3] -0.027 | [4] 0.038 | [5] -0.037 | rosiglitazone -0.006 | [6] 0.018 | [7] 0.013

RPL29 (UniProt P47914)
inactive: [1] 0.107 | volasertib 0.526 | [2] -0.042 | epoxomicin -0.692 | [3] 0.076 | [4] 0.279 | [5] -0.187 | rosiglitazone -0.274 | [6] 0.408 | [7] 0.331

RPL3L (UniProt Q92901)
inactive: [1] 0.305 | volasertib 0.817 | [2] -0.002 | epoxomicin -0.887 | [3] 0.127 | [4] 0.337 | [5] -0.304 | rosiglitazone -0.302 | [6] 0.516 | [7] 0.397

RPP25 (UniProt Q9BUL9)
inactive: [1] 0.05 | volasertib 0.129 | [2] -0.003 | epoxomicin -0.017 | [3] -0.011 | [4] 0.091 | [5] -0.047 | rosiglitazone 0.016 | [6] -0.048 | [7] -0.068

RPS7 (UniProt P62081)
inactive: [1] 0.176 | volasertib 0.435 | [2] 0.068 | epoxomicin -0.261 | [3] 0.036 | [4] 0.115 | [5] -0.122 | rosiglitazone -0.125 | [6] 0.223 | [7] 0.146
